Test results as given in article PMC11601937.
No constants are given. Whether binding was seen depends on the method and setting. Binding seen in cells or lysates may run through a third protein. Some results given as binding are weak or reduced against the parent protein; the word gives no strength.

Target: T1, stimulator of IFN genes (STING) (mouse (endogenous in BMDCs)) (UniProt Q3TBT3)
T1 sequence: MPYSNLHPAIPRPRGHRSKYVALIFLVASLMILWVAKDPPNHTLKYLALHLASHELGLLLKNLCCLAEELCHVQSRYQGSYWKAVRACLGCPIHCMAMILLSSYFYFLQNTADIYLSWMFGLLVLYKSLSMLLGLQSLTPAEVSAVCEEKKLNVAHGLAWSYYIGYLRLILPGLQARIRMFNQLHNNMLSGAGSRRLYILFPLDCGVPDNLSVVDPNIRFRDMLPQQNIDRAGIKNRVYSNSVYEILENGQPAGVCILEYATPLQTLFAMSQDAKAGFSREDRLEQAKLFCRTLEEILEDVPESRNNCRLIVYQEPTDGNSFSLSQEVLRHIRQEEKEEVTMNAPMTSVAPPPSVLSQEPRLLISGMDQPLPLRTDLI
Experiment: co-IP; anti-STING antibody on Dynabeads Protein G; lysates of WT mouse BMDCs stimulated with 2'3'-cGAMP, incubated 2 hours at room temperature; eluate detected by Western blotting

B1: cathepsin A (enzyme, UniProt P16675 24-474)
chain: APDQDEIDCLPGLAKQPSFRQYSGYLRASDSKHFHYWFVESQNDPKNSPVVLWLNGGPGCSSLDGLLTEHGPFLIQPDGVTLEYNPYAWNLIANVLYIESPAGVGFSYSDDKMYVTNDTEVAENNYEALKDFFRLFPEYKDNKLFLTGESYAGIYIPTLAVLVMQDPSMNLQGLAVGNGLASYEQNDNSLVYFAYYHGLLGNRLWTSLQTHCCAQNKCNFYDNKDPECVNNLLEVSRIVGKSGLNIYNLYAPCAGGVPGRHRYEDTLVVQDFGNIFTRLPLKRRFPEALMRSGDKVRLDPPCTNTTAPSNYLNNPYVRKALHIPESLPRWDMCNFLVNLQYRRLYQSMNSQYLKLLSSQKYQILLYNGDVDMACNFMGDEWFVDSLNQKMEVQRRPWLVDYGESGEQVAGFVKECSHITFLTIKGAGHMVPTDKPRAAFTMFSRFLNKEPY
Question: How did the binding turn out when B1 was run?
Answer: binds
